Data from PMC10411469.
Results are given in words; binding and its absence hold for the method and conditions named. In cells and extracts the contact can be indirect. Some results given as binding are weak or reduced against the parent protein; the word gives no strength.

By UniProt entry, the sequences of proteins in these tests, tags left out.
UniProt P40763: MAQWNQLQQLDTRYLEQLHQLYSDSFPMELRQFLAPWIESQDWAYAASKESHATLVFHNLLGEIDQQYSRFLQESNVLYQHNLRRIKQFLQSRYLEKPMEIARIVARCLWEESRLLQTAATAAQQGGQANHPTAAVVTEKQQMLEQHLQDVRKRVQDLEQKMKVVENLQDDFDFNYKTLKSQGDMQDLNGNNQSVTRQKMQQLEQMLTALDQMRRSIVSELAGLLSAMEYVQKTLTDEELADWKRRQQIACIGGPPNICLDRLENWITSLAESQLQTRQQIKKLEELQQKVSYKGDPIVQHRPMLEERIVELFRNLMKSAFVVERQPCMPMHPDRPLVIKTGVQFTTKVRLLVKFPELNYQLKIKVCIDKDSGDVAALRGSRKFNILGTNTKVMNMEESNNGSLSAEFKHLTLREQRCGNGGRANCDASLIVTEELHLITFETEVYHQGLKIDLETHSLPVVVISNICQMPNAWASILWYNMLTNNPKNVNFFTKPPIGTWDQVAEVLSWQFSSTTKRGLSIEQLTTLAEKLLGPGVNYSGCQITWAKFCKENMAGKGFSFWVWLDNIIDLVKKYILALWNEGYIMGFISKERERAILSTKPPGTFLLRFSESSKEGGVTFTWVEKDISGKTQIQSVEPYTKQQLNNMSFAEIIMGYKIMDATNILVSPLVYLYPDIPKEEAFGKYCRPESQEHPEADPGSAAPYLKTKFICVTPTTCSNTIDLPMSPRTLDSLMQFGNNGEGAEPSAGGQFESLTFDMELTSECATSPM

T1: exogenously expressed FIBP (FGF1 intracellular binding protein) (UniProt O43427)
T1 sequence: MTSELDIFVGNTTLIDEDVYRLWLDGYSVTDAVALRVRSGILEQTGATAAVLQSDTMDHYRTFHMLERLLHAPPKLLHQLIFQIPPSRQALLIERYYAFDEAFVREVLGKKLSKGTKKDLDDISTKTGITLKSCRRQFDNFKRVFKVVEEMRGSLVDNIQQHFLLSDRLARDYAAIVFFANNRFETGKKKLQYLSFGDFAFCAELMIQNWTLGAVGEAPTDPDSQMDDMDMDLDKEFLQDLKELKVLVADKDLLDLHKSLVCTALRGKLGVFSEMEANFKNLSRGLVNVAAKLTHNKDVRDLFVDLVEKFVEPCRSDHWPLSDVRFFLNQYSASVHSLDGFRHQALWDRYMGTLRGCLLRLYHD

B1: exogenously expressed FIBP (FGF1 intracellular binding protein) (protein, UniProt O43427 1-364)
chain: T1 sequence
B2: endogenous FIBP (protein, UniProt O43427 1-364)
chain: T1 sequence
B3: SFB-FIBP (protein, UniProt O43427 1-364)
chain: T1 sequence

Legend:
[1] = biological target: T1, exogenously expressed FIBP (FGF1 intracellular binding protein); assay: co-IP; H1299 cell lysates in NETN buffer (20 mM Tris-HCl pH 8.0, 100 mM NaCl, 1 mM EDTA, 0.5% Nonidet P-40); S-protein agarose or primary antibodies plus protein A/G agarose; western blot
[2] = biological target: exogenously expressed STAT3 (signal transducer and activator of transcription 3) (UniProt P40763); assay: as above
[3] = biological target: endogenous STAT3 (human (endogenous in H1299)) (UniProt P40763); assay: as above
[4] = biological target: recombinant GST-tagged STAT3 (UniProt P40763); assay: pull-down; purified GST-STAT3 (or GST) immobilised on Glutathione-Sepharose 4B beads, incubated with lysates of cells transfected with SFB-FIBP overnight at 4°C; immunoblot; only the target purified

Molecule	binding [1]	binding [2]	also measured
endogenous STAT3 (from UniProt P40763 1-770)	binds	–	–
exogenously expressed STAT3 (signal transducer and activator of transcription 3) (from UniProt P40763 1-770)	binds	–	–
B1	–	binds	–
B2	–	binds	binding [3]: binds
B3	–	–	binding [4]: binds
